## Percent effect of library compounds

Measurements from “University of Dundee, Small-Polar-MMV Screening Library” (2021), ChEMBL document CHEMBL3988442.

Mtb cholesterol medium: 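Phenotypic screen: M. tuberculosis growth, cholesterol and DPPC medium, 4 days; the read-out is not stated. Compounds at 50 µM. Higher reads as more growth inhibition (inferred: compounds with an IC50 in retests scored well above the rest). Size under these conditions: about 69,000 compounds, about 370 of them at 50% or above in at least one test.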
Mtb glucose medium: 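Whole-cell growth test on Mycobacterium tuberculosis, read after 3 days in glucose-containing 7H9 medium; the read-out is not stated. Compounds at 50 µM. The record gives no direction; compounds that gave an IC50 in retests scored well above the rest, so higher reads as more growth inhibition. About 69,000 compounds were tested under these conditions; 1.1% (about 760) showed 50% or more at least once.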

Values are the deposited “Percent Effect”, in %.
The record does not define 0% and 100%; most values in the screen are far below 50% and negative numbers occur (in some assays of this library far below -100).
The compounds are a random part of those screened.
Two or more numbers in one place are separate tests of the same structure; such repeats can differ widely.

Compound,Mtb cholesterol medium,Mtb glucose medium
CN1C(=O)CCc2cc(NC(=O)C3CC(=O)N(CC4CC4)C3)ccc21 (stereo not drawn),-6.45%,-37.28%
Cc1cc(C(=O)NCCn2nc3ccccn3c2=O)[nH]n1,-22.94%,-25.63%
OCCOCCN1CCCC1c1nc2cc(F)ccc2[nH]1 (stereo not drawn),-25.32%,-67.62%
[H][C@]12CCN[C@@]1([H])CN(C(=O)CC(C)(C)C)C2,12.71%,27.95%
NC(=O)CN1CCOCC(Cc2cccc(F)c2)C1 (stereo not drawn),-10.31%,25.61%
O=C(O)C(F)(F)F.[H][C@@]12COC[C@@H](C(=O)N3CCCCO3)[C@]1([H])CN(Cc1cc(C)c(C)o1)C2,-16.53% & -0.1325%,-39.72%
CC(C)Nc1ncnc2c1CCN(C(=O)CCc1ccccc1)CC2,-11.06%,17.72%
COCCCC(=O)N(C)c1ccc(F)c(Cl)c1,-15.86%,15.18%
Cc1ccsc1CN(CCN(C)C)Cc1ccccn1,4.571%,6.425% & 23.9%
O=C1CCCN1Cc1ncn2c1CN(C(=O)Cc1ccccc1)CCC2,7.756%,-15.1%
CCc1cnc(C)nc1NCc1nc(COC)no1,-2.879%,11.42% & 3.277%
Cc1cc2cc(CNC3CCN(CC(=O)N(C)C)CC3)oc2cc1C,-1.21%,-9.149%
CC(C)c1nnc2n1CCN(CC(=O)Nc1sccc1C#N)C2,-22.29%,-19.74%
CC(=O)Nc1nc(-c2ccccc2)c[nH]1,-3.051%,-10.64%
Cl.Cl.OC(CN1CCN(Cc2cc(F)cc(F)c2)CC1)C1CC1 (stereo not drawn),-8.602%,-17.33%
O=S(=O)(Cc1cccc(F)c1)Nc1cc(Cl)ccn1,3.496%,-7.657% & 13.41%
NCC(=O)N1CCC(c2cccc(Oc3ccccc3)n2)CC1,-1.71%,-7.382%
Cc1ccc(N2CCN(C(=O)CCc3n[nH]c(C)c3C)CC2=O)cc1,-23.44%,18.11%
O=C(O)C(F)(F)F.O=C(O)C(F)(F)F.c1cncc(N2CCOCC3(CN(Cc4cccs4)CCO3)C2)c1 (stereo not drawn),-1.771% & -4.649%,-13.11%
COc1cc(CNCC(O)c2ccc(C)cc2)cc2c1OCO2.Cl (stereo not drawn),15.32%,-54.01% & 4.571%
Cc1ncnc(NCCCN2CCCCC2CO)c1C (stereo not drawn),-11.4%,13.16%
CSC(C)(C)CNC(=O)NCC[S+]([O-])c1ccccc1 (stereo not drawn),1.919%,17.09%
CC(C)NC1CCCc2nc(-c3ccccc3)ncc21 (stereo not drawn),-11.3% & -8.066%,-3.008%
COCC(=O)N1CCC2(CCN(c3cnn(C)c3)C2=O)C1 (stereo not drawn),-3.363%,-24.6%
NC(=O)C1(c2cnccn2)CCCN1Cc1ccc(F)c(F)c1 (stereo not drawn),-8.465%,7.277%
CCCn1cc(C(=O)NC(CC(=O)O)c2ccccc2F)c(C)n1 (stereo not drawn),-23.15%,-33.03%
COCC(=O)N1CCc2ccc(=O)n(Cc3csc(C)n3)c2CC1.O=C(O)C(F)(F)F,0.6401%,-19.09% & 0.6706%
O=C(O)C(F)(F)F.O=C(O)C(F)(F)F.[H][C@@]12CN(Cc3cc[nH]n3)C[C@]1([H])OCCN2CCOC,-12.05%,2.239%
CN1CCOC(CN(C(=O)CN2CCCC2=O)c2nccs2)C1 (stereo not drawn),-25.48%,-31.39% & -8.317%
Cc1ccn(-c2ccnc(N3CCN(c4ncccn4)CC3)n2)n1,4.782%,42.89%
O=C(NCCn1ccnc1)c1ccn(-c2ccccc2F)n1,4.353%,-27.31%
CN(Cc1ccccc1OC(F)(F)F)C(=O)C1CC1,-1.788% & -4.814%,-2.251%
CC(C)N1CCCC(Cc2cncc(Br)c2)CC1 (stereo not drawn),24.49%,1.803%
CC(C)NC(=O)N1CC(=O)c2sc(NC3CCCCC3)nc2C1,-5.019%,-12.75%
Cc1ccccc1N1CC(C)N(Cc2ccc(C)c(F)c2F)CC1=O (stereo not drawn),-16.77%,-62.45%
NC(=O)N1CCC(C(=O)NC2CCc3nccn3C2)CC1 (stereo not drawn),-21.93%,-20.48%
CCc1nc2ccccc2n1C(CC)C(=O)N(C)Cc1noc(C)n1 (stereo not drawn),-11.44%,-26.84%
COc1ccc(OC)c(C(=O)N2CCC(Nc3cccnc3)CC2)c1,14.87%,13.09%
Cc1cc(N2CCC(Cc3ccncc3)C2)ncn1 (stereo not drawn),17.35%,18.94%
CC(C)CN1CCC(NC(=O)c2ccc(Cl)cc2Cl)CC1,-17.15%,-20.27%
Cc1nccn1CCC1CCN(c2ncccn2)CC1,7.359%,-44.51% & -10.17%
CC(C)Oc1ncc(C(=O)N2CCC(N(C)C)CC2)cc1Cl,9.974%,26.26%
CCc1cc(N2CCC(NCCc3ccccc3F)CC2)nc(C)n1,-35.37%,14.65%
O=C(O)C(F)(F)F.[H][C@]12CCC[C@@H](CNc3cnccn3)[C@@]1([H])CN(Cc1cccnc1)C2,10.65%,1.862%
Cc1ccc2c(n1)N(CCn1cccn1)CCN(C1CCOCC1)C2.O=C(O)C(F)(F)F.O=C(O)C(F)(F)F,-12.56%,-23.33%
O=C(O)C(F)(F)F.O=C(O)C(F)(F)F.[H][C@@]12COC[C@]1(COCC1CCOCC1)CN(Cc1ccccn1)C2,9.129%,-11.7% & -2.982%
CNC(=O)c1c(C)cccc1NCC(=O)Nc1cc(C)nn1C,16.67%,4.115% & -20.4%
Cc1ccc(-c2n[nH]cc2CNCC2CCN(CC(F)(F)F)C2)o1.Cl (stereo not drawn),-5.182%,17.92% & 9.944%
CNc1cc(-c2cccc(CN)c2)c2cc[nH]c2n1,33.38%,42.3%
O=C(CNCC1(O)CCCN(Cc2cccc(F)c2F)C1=O)NC1CC1 (stereo not drawn),-26.53%,-28.77%
CCC(=O)N1CCC(Cc2ccccc2-c2ccccc2F)(C(N)=O)C1 (stereo not drawn),-9.986%,-9.463%
Cc1nn(C)c(C)c1C1CCCN1C(=O)c1cc(C(N)=O)cs1 (stereo not drawn),14.94%,-27.14%
CC(C)CCN1CCN(C(=O)c2ccc(=O)[nH]n2)CC1,8.815%,5.372% & -3.775%
CCS(=O)(=O)NCCN(CCO)C1CCc2ccccc21 (stereo not drawn),-8.764%,4.983%
Cc1nc2c(c(C)c1CC(=O)Nc1ccccc1F)c(=O)[nH]n2C,0.08293%,16.53%
CCc1cc(N2CCN(C(C)=O)CC2)n2nc(C)c(C)c2n1,-11.1% & -6.002%,-27.88%
O=C(O)C(F)(F)F.O=C(O)C(F)(F)F.O=C(O)C(F)(F)F.[H][C@@]12CCCO[C@]1([H])[C@H](OCc1ccccn1)CN2Cc1scnc1C,-0.8779% & -4.1%,-1.609% & -11.98%
O=C(c1cc(C2CC2)[nH]n1)N1CCN(Cc2ccccc2)CC1,17.31%,51% & 31.19%
Cc1nc(C)n(CC2CCCN(CC(=O)Nc3nnc(C)s3)C2)n1 (stereo not drawn),-10.74%,15.35%
CCn1ccnc1CN1CCCC1c1c(C)nn(C)c1OC (stereo not drawn),-25.17%,-28.18%

For reference, 6 entries once more:

Compound	Mtb cholesterol medium	Mtb glucose medium
CC(C)Oc1ncc(C(=O)N2CCC(N(C)C)CC2)cc1Cl	9.974%	26.26%
O=C(O)C(F)(F)F.[H][C@@]12COC[C@@H](C(=O)N3CCCCO3)[C@]1([H])CN(Cc1cc(C)c(C)o1)C2	-16.53% & -0.1325%	-39.72%
Cc1ccsc1CN(CCN(C)C)Cc1ccccn1	4.571%	6.425% & 23.9%
COc1cc(CNCC(O)c2ccc(C)cc2)cc2c1OCO2.Cl (stereo not drawn)	15.32%	-54.01% & 4.571%
COCC(=O)N1CCc2ccc(=O)n(Cc3csc(C)n3)c2CC1.O=C(O)C(F)(F)F	0.6401%	-19.09% & 0.6706%
CC(C)CCN1CCN(C(=O)c2ccc(=O)[nH]n2)CC1	8.815%	5.372% & -3.775%